Reference: the supplement of paper PMC12889115
The list shows a part of the results. These are raw signals, not scaled to a control.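 First-pass screen: polymyxin B was added at a level that permeabilizes the Salmonella outer membrane while sparing the inner membrane. DMSO wells, with and without polymyxin B, defined maximum growth. Because plates differed from one another, each plate's data were ranked separately and the compounds with the lowest OD600 were carried forward as hits.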

Tested on: Salmonella enterica serovar Typhimurium SL1344
Assay: bacterial growth OD600 after 18 h with compound and polymyxin B; higher = more bacterial growth (less inhibition)
Details: 50 µM, Mueller-Hinton broth

| SMILES | bacterial growth OD600 (polymyxin B 1 µg/mL) | bacterial growth OD600 (polymyxin B 0.75 µg/mL) |
| --- | --- | --- |
| CCOc1ccc(CN2CCN(Cc3ccc(OC)cc3F)C(CCO)C2)cc1CO (configuration not stated) | 1.08 | – |
| CC(=O)c1cccc(CN2CCCC(Nc3ccc(F)c(F)c3)C2)c1 (configuration not stated) | 0.657 | – |
| O=C1CC(CC(=O)N2CCCCC2c2nccs2)(c2ccccc2)C(=O)N1CCc1ccccn1 (configuration not stated) | – | 0.785 |
| Cc1nc(CN2CCN(C(=O)Cn3nnnc3CN3CCC(C)CC3)CC2)cs1 | 0.969 | – |
| COc1ccc(-c2cn3c(C(=O)NCC(F)(F)F)csc3n2)cc1F | – | 0.003 |
| COc1ncccc1C(=O)NC1CCCc2nc(-c3ccccc3)ncc21 (configuration not stated) | 0.968 | – |
| COc1ccccc1Oc1ncccc1CNC(=O)c1ccc[n+]([O-])c1 | 1.05 | – |
| CSCC(=O)N1CCCC(CCc2ccccc2)C1 (configuration not stated) | – | 0.568 |
| O=S(=O)(c1ccc(OC(F)(F)F)cc1)N1CCC(n2c(C3CCCO3)nc3cccnc32)CC1 (configuration not stated) | – | 0.983 |
| CCNC(=O)c1cnn(-c2nccc(-c3cc(C)sc3C)n2)c1C1CC1 | – | 0.858 |
| COC(=O)[C@@H]1CCCN1C(=O)c1cn(Cc2ccccc2C(F)(F)F)nn1 | 0.8 | – |
| Cc1nc[nH]c1CN1CCCC(CCc2ccc(F)c(F)c2)C1 (configuration not stated) | – | 0.742 |
| COc1ccc(CCN(C)C(=O)C2CCN(c3nc(C)c4cc(C)ccc4n3)CC2)cc1OC | – | 0.778 |
| Cc1nc2ccc(C(=O)N3CCC(C(Cc4ccccc4)N(C)Cc4cccnc4)CC3)cc2nc1C (configuration not stated) | – | 0.763 |
| CN(CCC1CCCCO1)C(=O)c1cc(Cn2ccc3ccccc32)[nH]n1 (configuration not stated) | – | 0.784 |
| CN(C)c1ncc2c(n1)CCCC2NCc1ccc(C(F)(F)F)cc1 (configuration not stated) | – | 0.769 |
| CCCc1cc(CNC(=O)c2ccc(NC3CCC3)nc2)on1 | 0.924 | – |
| CN(Cc1ccccc1)C1(CNC(=O)Cc2cnc3ncnn3c2)Cc2ccccc2C1 | 1.04 | – |
| CC(CO)Nc1ccc(-c2nc(Cc3ccc(F)cc3)no2)cn1 (configuration not stated) | – | 0.74 |
| CN(C(=O)c1ccc(OC2CCN(C(=O)C3CC3)CC2)cc1)C1CCCCC1 | 0.93 | – |
| CCC1CN(Cc2cccs2)Cc2cc(OC)ccc2O1 (configuration not stated) | – | 0.757 |
| CN(C)c1ncc2c(n1)CCCC2NC(=O)CCN1CCCCC1=O (configuration not stated) | 0.971 | – |

Part of the list above, with tabs.
SMILES	bacterial growth OD600 (polymyxin B 1 µg/mL)	bacterial growth OD600 (polymyxin B 0.75 µg/mL)
COc1ccccc1Oc1ncccc1CNC(=O)c1ccc[n+]([O-])c1	1.05	–
Cc1nc2ccc(C(=O)N3CCC(C(Cc4ccccc4)N(C)Cc4cccnc4)CC3)cc2nc1C (configuration not stated)	–	0.763
